# Measured values from PMC6591302.
# Amino acid sequences for entries named in this document (tags omitted).
# UniProt P38606: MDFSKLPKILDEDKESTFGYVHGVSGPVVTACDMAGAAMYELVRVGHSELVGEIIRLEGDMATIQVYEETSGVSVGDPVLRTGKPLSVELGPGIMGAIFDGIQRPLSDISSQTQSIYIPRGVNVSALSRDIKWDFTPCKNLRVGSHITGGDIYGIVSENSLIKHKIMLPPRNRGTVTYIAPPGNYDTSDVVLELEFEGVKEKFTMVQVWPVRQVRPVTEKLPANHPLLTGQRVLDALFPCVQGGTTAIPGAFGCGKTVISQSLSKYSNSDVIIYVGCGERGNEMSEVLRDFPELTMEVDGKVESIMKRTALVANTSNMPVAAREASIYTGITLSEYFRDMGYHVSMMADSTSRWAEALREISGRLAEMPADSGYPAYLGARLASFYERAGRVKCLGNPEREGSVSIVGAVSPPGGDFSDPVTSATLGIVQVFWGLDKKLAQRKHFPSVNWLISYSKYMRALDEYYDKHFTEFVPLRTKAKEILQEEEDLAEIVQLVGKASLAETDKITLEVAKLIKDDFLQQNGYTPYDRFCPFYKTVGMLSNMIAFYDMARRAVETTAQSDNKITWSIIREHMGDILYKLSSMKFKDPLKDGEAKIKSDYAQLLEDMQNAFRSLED
# UniProt Q13488: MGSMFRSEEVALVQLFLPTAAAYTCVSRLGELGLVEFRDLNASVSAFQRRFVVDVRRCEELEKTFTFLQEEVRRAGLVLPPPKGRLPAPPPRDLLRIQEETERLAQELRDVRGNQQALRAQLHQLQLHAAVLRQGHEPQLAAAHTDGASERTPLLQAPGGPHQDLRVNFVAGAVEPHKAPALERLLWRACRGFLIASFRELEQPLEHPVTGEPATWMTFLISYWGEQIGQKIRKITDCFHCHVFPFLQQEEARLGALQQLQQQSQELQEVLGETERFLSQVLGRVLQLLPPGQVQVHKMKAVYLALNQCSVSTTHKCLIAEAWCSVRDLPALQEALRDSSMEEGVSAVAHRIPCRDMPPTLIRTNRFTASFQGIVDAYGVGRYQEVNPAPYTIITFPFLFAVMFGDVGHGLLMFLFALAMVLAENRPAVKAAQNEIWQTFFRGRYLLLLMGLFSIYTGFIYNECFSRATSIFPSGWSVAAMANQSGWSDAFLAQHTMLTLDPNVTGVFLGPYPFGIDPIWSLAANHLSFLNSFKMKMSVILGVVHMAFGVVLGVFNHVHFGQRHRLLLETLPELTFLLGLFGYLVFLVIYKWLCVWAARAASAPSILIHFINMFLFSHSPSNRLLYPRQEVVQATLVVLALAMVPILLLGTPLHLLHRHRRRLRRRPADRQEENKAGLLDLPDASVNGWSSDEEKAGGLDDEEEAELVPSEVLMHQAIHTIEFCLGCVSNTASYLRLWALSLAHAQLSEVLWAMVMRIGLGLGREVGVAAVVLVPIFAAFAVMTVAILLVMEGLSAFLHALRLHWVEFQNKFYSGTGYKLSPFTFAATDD
# Results are given in words; binding and its absence hold for the method and conditions named. In cells and extracts the contact can be indirect. Some entries that bind do so weakly or less than the wild type.
# Target: V-ATPase V1A1 protein (human (endogenous in HeLa)) (UniProt P38606)
# Test: co-IP; HeLa lysate in RIPA buffer with protease inhibitors; rabbit anti-V1A1 antibodies 2 ug per mg protein, 4 C, 4 h; protein A sepharose beads; washed three times with PBS containing 0.5% NP-40; Western blot for V1A1 and V0a3; normal rabbit IgG as negative control
substance,measurement,value
V-ATPase V0a3 protein (from UniProt Q13488 1-830),binding,binds
